We go through three substances from paper PMC11165011.

By UniProt entry, the sequences of proteins in these tests, tags left out. Residues count along the entry.
UniProt P40763: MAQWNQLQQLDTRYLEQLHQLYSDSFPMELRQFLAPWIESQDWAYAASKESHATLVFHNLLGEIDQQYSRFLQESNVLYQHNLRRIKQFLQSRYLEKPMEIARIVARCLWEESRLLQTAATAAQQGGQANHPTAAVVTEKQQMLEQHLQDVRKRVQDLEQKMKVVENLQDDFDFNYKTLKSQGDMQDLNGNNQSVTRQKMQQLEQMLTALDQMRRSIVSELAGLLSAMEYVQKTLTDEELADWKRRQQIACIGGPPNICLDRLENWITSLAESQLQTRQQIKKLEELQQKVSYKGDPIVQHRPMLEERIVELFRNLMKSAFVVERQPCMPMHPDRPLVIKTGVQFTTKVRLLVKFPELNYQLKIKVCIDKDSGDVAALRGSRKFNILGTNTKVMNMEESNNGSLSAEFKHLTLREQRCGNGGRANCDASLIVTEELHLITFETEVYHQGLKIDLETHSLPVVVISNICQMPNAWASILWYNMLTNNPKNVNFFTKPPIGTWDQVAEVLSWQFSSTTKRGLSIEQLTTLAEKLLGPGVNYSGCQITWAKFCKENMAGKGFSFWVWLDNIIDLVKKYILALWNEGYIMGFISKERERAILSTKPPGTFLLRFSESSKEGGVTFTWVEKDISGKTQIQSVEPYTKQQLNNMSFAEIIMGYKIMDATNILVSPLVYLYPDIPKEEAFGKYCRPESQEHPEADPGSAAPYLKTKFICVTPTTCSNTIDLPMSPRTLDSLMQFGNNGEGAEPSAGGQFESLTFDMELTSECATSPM
UniProt P08246, residues 30-267: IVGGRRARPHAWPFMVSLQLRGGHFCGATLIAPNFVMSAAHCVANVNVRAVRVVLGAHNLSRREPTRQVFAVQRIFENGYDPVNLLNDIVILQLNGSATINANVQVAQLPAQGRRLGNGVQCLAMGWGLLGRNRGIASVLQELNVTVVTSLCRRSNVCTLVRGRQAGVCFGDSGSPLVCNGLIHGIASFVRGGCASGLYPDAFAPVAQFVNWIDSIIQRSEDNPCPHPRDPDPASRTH

Assay [1] concerns the target T1, PRTN3, endogenous in human primary CD34+ cells (human (endogenous in primary CD34+ cells)) (UniProt P24158).
T1 sequence: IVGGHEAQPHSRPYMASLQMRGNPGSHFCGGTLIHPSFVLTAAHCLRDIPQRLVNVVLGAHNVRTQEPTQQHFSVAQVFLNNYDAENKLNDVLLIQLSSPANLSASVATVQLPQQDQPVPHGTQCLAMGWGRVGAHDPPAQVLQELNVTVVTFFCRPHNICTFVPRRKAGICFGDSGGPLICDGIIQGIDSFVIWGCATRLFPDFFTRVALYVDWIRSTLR
The assay can be described thus: co-IP; lysates of human primary CD34+ cells from cord blood, endogenous proteins; anti-STAT3 or anti-PRTN3; immunoblot. In general terms: In western blotting, separated proteins are transferred to a membrane and probed.

For assay [2], the target named is STAT3, endogenous in HL60 cells (human (endogenous in HL60)) (UniProt P40763). The assay can be described thus: co-IP; HL60 cell lysates, endogenous proteins; STAT3 antibody added for immunoprecipitation, anti-NE and anti-CatG antibodies.
For assay [3], the target named is T2, HA-tagged PRTN3 (Proteinase 3), full length (human) (UniProt P24158).
T2 sequence: T1 sequence
Description: co-IP; HEK293T cells co-transfected with Flag-STAT3 and HA-PRTN3; lysates precipitated with anti-Flag or anti-HA overnight at 4 °C, protein A/G agarose; immunoblot.

These are yes or no findings as the source states them, for the method shown. In cells and extracts the contact can be indirect. Some entries that bind do so weakly or less than the wild type. For part of these data: Where a sequence is shown, tags or fusion partners need not be part of it.

In the case of “STAT3, endogenous in human primary CD34+ cells (from UniProt P40763 1-770)”, the binding entry in assay [1] is listed as “binds”.
With “neutrophil elastase (NE), endogenous in HL60 cells (from UniProt P08246 30-267) (enzyme)”, the binding entry in assay [2] is given as “no binding”.
“Flag-tagged STAT3 (1-770) (from UniProt P40763 1-770)”: the binding result in assay [3] is “binds”.
